PubChem BioAssay AID1259254 | NCATS, 2017

Aim: 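Finding genes that stop cells copying their DNA twice in one cycle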 (primary screen)
System: human HCT116 colorectal cancer cells
Reagents: single siRNA against human genes
Timing: 3 days
Detection: 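Nuclei stained with Hoechst and imaged; cell-cycle phase assigned by DNA content; G2 share scaled per plate, non-targeting siRNA 0%, GMNN siRNA 100%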
Scale: G2 robust z-score: higher = more G2 cells, more excess DNA replication
Active means: 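An siRNA counts as active if its G2 robust z-score lies at least 5 MADs above the screen median; here such calls match roughly 38% of GMNN control or more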
Shown is a random part of about 59,000 deposited reagents. Of all reagents, about 1,550 (2.6%) are marked active. 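G2 share is only a proxy for re-replication; each gene was hit by three separate siRNAs, and active genes were retested.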 The numbers tell different reagents against one gene apart. Further read-outs or replicates are left out here. Not given: the amount of reagent.

CARD10 #1
- G2 robust z-score: 0.438
- activity call: inactive

CARD10 #2
- G2 robust z-score: -0.447
- activity call: inactive

CARD10 #3
- G2 robust z-score: 0.919
- activity call: inactive

F7 #1
- G2 robust z-score: 2.65
- activity call: inactive

F7 #2
- G2 robust z-score: -0.495
- activity call: inactive

F7 #3
- G2 robust z-score: 0.646
- activity call: inactive

MARCHF9 #1
- G2 robust z-score: -1.06
- activity call: inactive

MARCHF9 #2
- G2 robust z-score: -0.294
- activity call: inactive

MARCHF9 #3
- G2 robust z-score: -0.126
- activity call: inactive

GPR20 #1
- G2 robust z-score: 1.96
- activity call: inactive

GPR20 #2
- G2 robust z-score: -1.18
- activity call: inactive

GPR20 #3
- G2 robust z-score: -0.846
- activity call: inactive

3 entries from above, sorted by “G2 robust z-score”, low to high.
GPR20 #2
- G2 robust z-score: -1.18
- activity call: inactive

MARCHF9 #3
- G2 robust z-score: -0.126
- activity call: inactive

GPR20 #1
- G2 robust z-score: 1.96
- activity call: inactive

Continued:
PPEF2 #1
- G2 robust z-score: 2.78
- activity call: inactive

PPEF2 #2
- G2 robust z-score: -1.41
- activity call: inactive

PPEF2 #3
- G2 robust z-score: -0.694
- activity call: inactive

WSCD1 #1
- G2 robust z-score: 1.58
- activity call: inactive

WSCD1 #2
- G2 robust z-score: -0.192
- activity call: inactive

WSCD1 #3
- G2 robust z-score: 0.896
- activity call: inactive

SYNGR1 #1
- G2 robust z-score: -0.718
- activity call: inactive

SYNGR1 #2
- G2 robust z-score: -0.513
- activity call: inactive

SYNGR1 #3
- G2 robust z-score: -0.154
- activity call: inactive

IGFBP2 #1
- G2 robust z-score: -0.544
- activity call: inactive

IGFBP2 #2
- G2 robust z-score: 0.775
- activity call: inactive

IGFBP2 #3
- G2 robust z-score: -0.725
- activity call: inactive
